From PMC8040478
No constants are given. Whether binding was seen depends on the method and setting. Binding seen in cells or lysates may run through a third protein. Some results given as binding are weak or reduced against the parent protein; the word gives no strength.

The chains behind the UniProt entries cited, without tags or fusion partners. Residues count along the entry.
UniProt P49134, residues 21-799: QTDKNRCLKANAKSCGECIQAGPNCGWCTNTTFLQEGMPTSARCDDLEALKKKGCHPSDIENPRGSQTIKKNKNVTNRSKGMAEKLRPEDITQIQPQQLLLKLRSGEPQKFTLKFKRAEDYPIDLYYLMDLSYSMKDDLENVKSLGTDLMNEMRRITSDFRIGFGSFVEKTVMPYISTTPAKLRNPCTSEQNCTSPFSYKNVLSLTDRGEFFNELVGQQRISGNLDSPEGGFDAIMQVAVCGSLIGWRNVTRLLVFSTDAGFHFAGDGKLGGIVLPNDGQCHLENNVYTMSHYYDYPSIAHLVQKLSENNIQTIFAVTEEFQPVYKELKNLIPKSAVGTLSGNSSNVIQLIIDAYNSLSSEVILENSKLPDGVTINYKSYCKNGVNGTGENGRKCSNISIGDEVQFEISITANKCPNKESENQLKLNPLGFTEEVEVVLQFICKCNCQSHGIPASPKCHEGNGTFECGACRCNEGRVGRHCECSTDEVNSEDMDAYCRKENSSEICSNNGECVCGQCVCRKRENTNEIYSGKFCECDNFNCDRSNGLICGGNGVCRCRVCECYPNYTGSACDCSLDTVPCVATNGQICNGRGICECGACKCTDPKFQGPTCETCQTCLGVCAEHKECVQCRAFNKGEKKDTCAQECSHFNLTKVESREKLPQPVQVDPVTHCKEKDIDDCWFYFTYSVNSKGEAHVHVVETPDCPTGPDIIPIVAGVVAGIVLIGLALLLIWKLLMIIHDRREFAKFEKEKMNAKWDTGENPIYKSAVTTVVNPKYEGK
UniProt Q7TQN4: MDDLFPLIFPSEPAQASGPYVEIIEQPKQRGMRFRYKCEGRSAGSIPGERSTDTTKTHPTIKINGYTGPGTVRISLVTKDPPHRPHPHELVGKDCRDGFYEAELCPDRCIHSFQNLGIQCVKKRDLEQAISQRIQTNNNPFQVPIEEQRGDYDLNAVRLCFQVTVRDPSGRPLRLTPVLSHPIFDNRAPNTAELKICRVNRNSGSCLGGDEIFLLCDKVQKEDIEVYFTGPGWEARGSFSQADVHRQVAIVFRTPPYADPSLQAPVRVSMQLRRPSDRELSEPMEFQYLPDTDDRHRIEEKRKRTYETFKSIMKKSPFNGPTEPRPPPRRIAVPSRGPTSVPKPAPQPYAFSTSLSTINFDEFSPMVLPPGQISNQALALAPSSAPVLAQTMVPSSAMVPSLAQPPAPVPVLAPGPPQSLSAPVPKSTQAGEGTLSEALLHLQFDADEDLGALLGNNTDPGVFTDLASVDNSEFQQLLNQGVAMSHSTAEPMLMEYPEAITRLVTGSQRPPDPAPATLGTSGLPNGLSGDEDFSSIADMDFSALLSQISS

B1: Caveolin-1 (endogenous in AFCs) (protein, UniProt P41350 1-178)
chain: MSGGKYVDSEGHLYTVPIREQGNIYKPNNKAMADEVNEKQVYDAHTKEIDLVNRDPKHLNDDVVKIDFEDVIAEPEGTHSFDGIWKASFTTFTVTKYWFYRLLSTIFGIPMALIWGIYFAILSFLHIWAVVPCIKSFLIEIQCISRVYSIYVHTFCDPLFEAIGKIFSNIRISTQEEI

Experiments:
[1] = target: T1, Caveolin-1 (overexpressed from pEX4-Cav1) (UniProt P41350); assay: co-IP; rat AFCs transfected with pEX4-Cav1 or pcDNA3.1-Integrin β1 for 48 h; modified RIPA lysate, pre-cleared; 1 μg anti-Cav1, anti-integrin β1 or IgG overnight at 4 °C; Agarose A+G; Western blot
T1 sequence: B1 chain

[2] = target: Integrin β1 (overexpressed from pcDNA3.1-Integrin β1) (UniProt P49134); assay: as above

binding [1] | binding [2] | Molecule
no binding | no binding | p65 (NF-κB subunit) (from UniProt Q7TQN4 1-550)
binds |  | Integrin β1 (endogenous in AFCs) (from UniProt P49134 21-799) (receptor)
 | binds | B1
